Some of these results come from one statement about several compounds together.
Test system: WP_068688876 enzyme (long chain fatty acid-CoA synthetase)
Test: formation of CoA moieties followed by pyrophosphate formation, Example 2
Format: biochemical, Thermobifida halotolerans
Settings: Example 2, FIG. 10; equimolar amount of arachidic and myristic acids together

CCCCCCCCCCCCCC(=O)O [C12, myristic acid]
time to completion of conversion into CoA moieties: ≤ 90 min

CCCCCCCCCCCCCCCCCCCC(=O)O [C18, arachidic acid]
time to completion of conversion into CoA moieties: ≤ 90 min

— patent US20260098283A1, “In Vitro Bioproduction of Specific Chain Legnth Poly(hydroxyalkanoate) Monomers” (Kimberly-Clark Worldwide, Inc., priority 2022, published 2026)
